The text below walks through data of publication doi:10.1101/701250.

By UniProt entry, the sequences of proteins in these tests, tags left out.
UniProt P28741: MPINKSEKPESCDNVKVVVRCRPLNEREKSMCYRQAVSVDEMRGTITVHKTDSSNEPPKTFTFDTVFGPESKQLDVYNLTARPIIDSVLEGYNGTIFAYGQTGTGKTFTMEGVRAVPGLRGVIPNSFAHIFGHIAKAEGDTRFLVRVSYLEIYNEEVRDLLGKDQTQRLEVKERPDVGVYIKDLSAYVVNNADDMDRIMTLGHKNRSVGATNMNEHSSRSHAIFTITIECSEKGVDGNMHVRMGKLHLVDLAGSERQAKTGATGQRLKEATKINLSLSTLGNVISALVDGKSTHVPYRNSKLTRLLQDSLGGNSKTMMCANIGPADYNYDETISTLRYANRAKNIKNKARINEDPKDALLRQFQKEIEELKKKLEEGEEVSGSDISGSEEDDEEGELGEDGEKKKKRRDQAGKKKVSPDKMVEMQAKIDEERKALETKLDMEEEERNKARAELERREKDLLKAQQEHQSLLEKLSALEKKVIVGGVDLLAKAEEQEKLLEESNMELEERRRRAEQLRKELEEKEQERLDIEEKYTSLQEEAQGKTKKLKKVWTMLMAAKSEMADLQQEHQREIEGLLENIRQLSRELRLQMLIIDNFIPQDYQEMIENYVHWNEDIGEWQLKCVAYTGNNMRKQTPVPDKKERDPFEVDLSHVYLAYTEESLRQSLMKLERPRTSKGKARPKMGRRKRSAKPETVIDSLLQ

No constants are given. Whether binding was seen depends on the method and setting. Some results given as binding are weak or reduced against the parent protein; the word gives no strength.

The experiment deals with T1, KIF3B (insect cell construct, co-expressed) (Mus musculus) (UniProt Q61771).
T1 sequence: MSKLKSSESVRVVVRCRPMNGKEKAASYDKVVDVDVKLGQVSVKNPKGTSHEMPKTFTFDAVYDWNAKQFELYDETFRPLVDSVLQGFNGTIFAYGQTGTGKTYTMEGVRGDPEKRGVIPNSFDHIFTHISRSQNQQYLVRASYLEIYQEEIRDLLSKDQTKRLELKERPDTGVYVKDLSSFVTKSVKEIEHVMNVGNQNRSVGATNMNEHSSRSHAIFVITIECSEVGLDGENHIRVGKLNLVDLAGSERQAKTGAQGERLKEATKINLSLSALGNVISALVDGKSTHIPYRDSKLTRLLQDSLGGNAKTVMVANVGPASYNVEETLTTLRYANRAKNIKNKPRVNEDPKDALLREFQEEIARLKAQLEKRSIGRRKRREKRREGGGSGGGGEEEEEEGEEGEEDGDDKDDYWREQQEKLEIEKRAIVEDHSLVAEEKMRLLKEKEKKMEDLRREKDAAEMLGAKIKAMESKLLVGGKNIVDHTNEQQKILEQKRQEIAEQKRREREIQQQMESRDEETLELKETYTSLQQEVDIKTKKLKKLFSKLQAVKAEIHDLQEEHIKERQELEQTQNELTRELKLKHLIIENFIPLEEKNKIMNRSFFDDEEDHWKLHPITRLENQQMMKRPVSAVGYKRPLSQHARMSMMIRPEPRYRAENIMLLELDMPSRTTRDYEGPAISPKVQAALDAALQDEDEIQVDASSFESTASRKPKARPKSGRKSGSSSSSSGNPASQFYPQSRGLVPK
The experiment is described as follows: affinity co-purification.

With “KIF3A (insect cell construct, co-expressed) (from UniProt P28741 1-701)”, the binding result is “binds”.
